In paper PMC5488176:
These are yes or no findings as the source states them, for the method shown. Binding seen in cells or lysates may run through a third protein. A yes stands for co-enrichment or nearness to the bait. Other partners may have been found. Blank lines part the entries; values can stand above or below the binder they belong to.

The chains behind the UniProt entries cited, without tags or fusion partners.
UniProt F4J8G7: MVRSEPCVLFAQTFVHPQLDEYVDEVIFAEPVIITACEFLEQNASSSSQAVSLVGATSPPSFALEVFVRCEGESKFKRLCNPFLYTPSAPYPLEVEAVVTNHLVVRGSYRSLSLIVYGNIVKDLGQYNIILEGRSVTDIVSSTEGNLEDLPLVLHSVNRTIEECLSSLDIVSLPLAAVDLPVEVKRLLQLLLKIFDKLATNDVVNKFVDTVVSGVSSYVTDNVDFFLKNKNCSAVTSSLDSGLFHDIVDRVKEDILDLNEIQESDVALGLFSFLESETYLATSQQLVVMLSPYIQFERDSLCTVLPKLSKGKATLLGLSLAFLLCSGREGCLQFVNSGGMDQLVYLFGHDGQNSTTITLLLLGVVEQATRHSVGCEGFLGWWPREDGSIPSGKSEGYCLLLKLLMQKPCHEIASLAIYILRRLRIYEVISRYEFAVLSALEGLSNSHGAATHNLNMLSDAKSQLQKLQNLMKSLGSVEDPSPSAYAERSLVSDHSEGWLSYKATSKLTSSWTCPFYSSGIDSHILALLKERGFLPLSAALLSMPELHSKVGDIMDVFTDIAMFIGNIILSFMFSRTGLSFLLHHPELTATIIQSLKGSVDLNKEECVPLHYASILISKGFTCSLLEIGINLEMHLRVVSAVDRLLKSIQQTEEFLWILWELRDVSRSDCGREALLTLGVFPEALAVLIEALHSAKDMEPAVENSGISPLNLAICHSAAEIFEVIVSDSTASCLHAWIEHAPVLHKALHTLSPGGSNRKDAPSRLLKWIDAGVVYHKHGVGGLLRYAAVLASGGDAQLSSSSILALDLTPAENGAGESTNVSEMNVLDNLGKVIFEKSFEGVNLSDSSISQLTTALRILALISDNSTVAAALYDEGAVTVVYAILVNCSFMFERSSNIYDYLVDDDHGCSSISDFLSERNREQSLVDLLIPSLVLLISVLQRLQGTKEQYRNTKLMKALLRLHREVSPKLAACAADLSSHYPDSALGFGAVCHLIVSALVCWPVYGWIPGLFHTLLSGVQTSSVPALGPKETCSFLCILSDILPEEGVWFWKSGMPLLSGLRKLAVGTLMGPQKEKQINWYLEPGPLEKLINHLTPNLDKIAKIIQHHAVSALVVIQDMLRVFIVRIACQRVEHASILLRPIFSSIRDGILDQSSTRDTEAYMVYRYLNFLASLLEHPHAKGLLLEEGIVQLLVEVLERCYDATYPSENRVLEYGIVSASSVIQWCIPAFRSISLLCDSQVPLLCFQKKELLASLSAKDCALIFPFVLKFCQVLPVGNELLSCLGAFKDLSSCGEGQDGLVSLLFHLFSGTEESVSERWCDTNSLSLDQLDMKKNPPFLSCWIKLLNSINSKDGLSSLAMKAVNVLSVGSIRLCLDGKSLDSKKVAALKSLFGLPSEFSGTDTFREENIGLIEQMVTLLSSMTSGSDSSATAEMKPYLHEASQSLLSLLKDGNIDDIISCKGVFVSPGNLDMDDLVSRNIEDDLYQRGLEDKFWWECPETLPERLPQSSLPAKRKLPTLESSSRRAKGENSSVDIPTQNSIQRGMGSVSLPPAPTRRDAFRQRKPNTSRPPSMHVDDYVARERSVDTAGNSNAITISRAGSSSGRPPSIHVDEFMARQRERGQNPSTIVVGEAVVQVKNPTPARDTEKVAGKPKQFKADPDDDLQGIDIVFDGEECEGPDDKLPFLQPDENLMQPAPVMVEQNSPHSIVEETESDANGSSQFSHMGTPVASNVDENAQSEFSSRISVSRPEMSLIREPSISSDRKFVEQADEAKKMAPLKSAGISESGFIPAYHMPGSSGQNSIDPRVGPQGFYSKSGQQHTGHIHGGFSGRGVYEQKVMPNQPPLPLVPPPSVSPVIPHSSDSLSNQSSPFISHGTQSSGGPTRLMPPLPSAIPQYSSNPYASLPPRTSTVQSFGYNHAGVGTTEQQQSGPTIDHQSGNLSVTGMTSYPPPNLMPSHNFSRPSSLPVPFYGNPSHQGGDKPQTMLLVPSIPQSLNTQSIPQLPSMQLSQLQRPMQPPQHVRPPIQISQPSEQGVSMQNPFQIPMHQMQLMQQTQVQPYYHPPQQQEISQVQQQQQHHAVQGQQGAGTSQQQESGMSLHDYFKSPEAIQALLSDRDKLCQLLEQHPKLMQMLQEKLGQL

Biological target: VIRILIZER (VIR) fused to the GS tag, TAP bait (Arabidopsis thaliana) (UniProt F4J8G7)
Experiment: affinity purification with mass spectrometry; tandem affinity purification by the GS tag of VIR (bait) from Arabidopsis cell suspension cultures, two independent purifications (TAP1, TAP2), proteolysis and mass spectrometry; putative false positives subtracted by prior TAP experiments on wild-type and mock cultures

binding: binds
B1: HAKAI, E3 ubiquitin ligase, endogenous (protein, UniProt Q9LFC0 1-360)
chain: MLQIRLRRDSPTETGNGARPSPTETVTVACPDHLVLADLPVAKGIGSVTPTTVIKPVGRRSRRQLGERVHFCVRCDFPIAIYGRLIPCDHAFCLECARSDSICYLCDERIQKIQTIKMMEGIFICAAPHCLRSFLKKLDFEAHVHDLHGSLLQADAEKEDGNQSDVQSTMQQSSASESTLRAPLRSQLQQSRELNRSASFAKSQSGFSQVQNYPPDSDNSRPPGFETASPKPGIRFPDYPQPMNLMQPPSLPVPMNQNPGLPQQFGFPSYPTTESGSSQQFFNGAQYEMTRTESGGSEQSSLLGYPPPSPMTNLNFQGSYPPPSWNPGMAPPHTTQQVNRGRDGQSFGWPQENRDGFGQE

binding: binds
B2: FIP37 (FKBP12 … PROTEIN 37), endogenous (protein, UniProt Q9ZSZ8 1-330)
chain: MEFSSQDDDFGGDDSAANATRASGNRRSFGDLEDDEDDIFGSTTVAPGVRTGMILSLRGSLKNCKDDLASCQNELESAKTEIQKWKSAFQNESFVPAGKSPEPRFLIDYIQNLKSSEKSLKEQLEIAKRKEASCIVQYAKREQEMAELKSAVRDLKSQLKPASMQARRLLLDPAIHEEFSRLKNLVEEKDKKIKELQDNIAAVTFTPQSKNGKMLMAKCRTLQEENEEIGHQAAEGKIHELAIKLAMQKSQNAELRSQFEGLYKHMEELTNDVERSNETVIILQEKLEEKEKEIERVKKGLEIVSELVGDKKDEVDEIDEDAKEEIAGGE
